The values below come from article PMC6925144, “A prospective compound screening contest identified broader inhibitors for Sirtuin 1” (Scientific Reports, 2019).

The chains behind the UniProt entries cited, without tags or fusion partners. Residues count along the entry.
UniProt Q96EB6, 2-747 limits assumed: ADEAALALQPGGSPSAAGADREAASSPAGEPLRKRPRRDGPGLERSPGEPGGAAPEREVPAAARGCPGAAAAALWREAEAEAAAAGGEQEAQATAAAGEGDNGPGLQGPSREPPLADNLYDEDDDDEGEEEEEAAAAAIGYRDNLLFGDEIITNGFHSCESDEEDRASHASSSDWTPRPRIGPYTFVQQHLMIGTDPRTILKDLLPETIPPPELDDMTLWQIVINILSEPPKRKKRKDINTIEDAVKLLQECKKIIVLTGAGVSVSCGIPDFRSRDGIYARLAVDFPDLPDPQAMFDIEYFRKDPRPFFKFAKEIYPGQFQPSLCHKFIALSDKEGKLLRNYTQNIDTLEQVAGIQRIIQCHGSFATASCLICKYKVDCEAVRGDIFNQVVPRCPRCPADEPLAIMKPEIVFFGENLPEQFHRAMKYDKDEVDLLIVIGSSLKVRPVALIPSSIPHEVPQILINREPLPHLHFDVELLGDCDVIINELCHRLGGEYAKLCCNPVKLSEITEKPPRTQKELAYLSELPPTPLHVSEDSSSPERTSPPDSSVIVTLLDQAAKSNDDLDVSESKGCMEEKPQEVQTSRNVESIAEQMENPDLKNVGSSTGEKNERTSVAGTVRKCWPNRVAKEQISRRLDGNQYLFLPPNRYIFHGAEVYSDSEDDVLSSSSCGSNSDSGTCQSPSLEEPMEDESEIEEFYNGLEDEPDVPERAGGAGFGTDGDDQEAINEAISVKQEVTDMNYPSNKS

In all, about 3,200 compounds were measured (“TSA(without NAD+) / Primary screening (TSA) / delta Tm (K)”: median about -0.07, highest 2% from about 0.37 on). The list shows a part of the results.

The target in the experiment is NAD-dependent deacetylase Sirtuin 1 (human, UniProt Q96EB6). As to the kind of experiment: primary screen, delta tm. The settings on record: 10 µM. Further details: single well (n = 1). Summed up: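 Thermal shift of Sirtuin 1 measured without NAD+, compound at 10 µM (n = 1); value is ΔTm, with hits defined as ΔTm > 0.45 K or < −1.5 K. Hits retested at 5, 10, 20 µM (n = 4) and counterscreened on bovine carbonic anhydrase and ABL1 SH2 domain.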
For `COc1ccc(Br)cc1C=C1C(=O)c2ccccc2C1=O`, the “TSA(without NAD+) / Primary screening (TSA) / delta Tm (K)” value is reported as 0.07 K.
Turning to `O=C(Nc1ccc2[nH]c(=O)[nH]c2c1)C1c2ccccc2Oc2ccccc21`, the “TSA(without NAD+) / Primary screening (TSA) / delta Tm (K)” value is on record as -0.04 K.
The figure for `Cc1nc(CSc2ccccc2C(=O)NCc2ccc(Cn3ccnc3)cc2)no1` is -0.08 K; for `CCCOc1ccc(C(=O)C2=C(O)C(=O)N(CCN3CCOCC3)C2c2ccccn2)cc1` (stereo not shown) it is 0.13 K.
The figure for `Cc1ccc(-c2nn(-c3ccccc3)cc2C=C2C(=O)NC(=S)NC2=O)o1` is 0.13 K; for `COc1cc(NC(=O)c2cccs2)c(C(=O)OCC(=O)NC23CC4CC(CC(C4)C2)C3)cc1OC` it is 0.18 K.
The value for `Cc1cc(C)c(CCNC(=O)NC2CCCNC2=O)c(C)c1` (stereo not shown) was -0.12 K; that for `CC(C)Oc1ccc(-c2nc(C(=O)OC3CCCN(Cc4ncccn4)C3)cs2)cc1` (stereo not shown) was -0.02 K; that for `COc1ccc(/C=C/C(=O)NCCn2c(C)nc3ccccc32)cc1` was -0.18 K.
In the case of `COc1ccc(C2CNC(c3ccccc3)c3[nH]c4ccccc4c32)cc1` (stereo not shown), the “TSA(without NAD+) / Primary screening (TSA) / delta Tm (K)” value was -0.34 K.
On to `O=C(Nc1ccc(N2CCCCC2)cc1)c1cc(Cl)nc2ccccc12`, for which the “TSA(without NAD+) / Primary screening (TSA) / delta Tm (K)” value is reported as -0.13 K.
For the compound `COc1ccc(N(C)S(=O)(=O)c2cccc(C(=O)Nc3cccc4ccccc34)c2)cc1`, the “TSA(without NAD+) / Primary screening (TSA) / delta Tm (K)” value is -0.13 K.
The figure for `O=C(Nc1cccc(S(=O)(=O)NCc2ccco2)c1)c1ccccc1OCc1ccccc1` is -0.03 K.
The value for `Cc1cccc([N+](=O)[O-])c1N` was -0.18 K; that for `O=C(O)c1c2ccccc2cc2ccccc12` was -0.24 K; that for `Cc1nc2ccc(C(=O)NC(Cc3ccccc3)C(N)=O)cc2nc1C` (stereo not shown) was -0.01 K.
On to `CCCc1noc(CSc2nccn2Cc2ccccn2)n1`, for which the “TSA(without NAD+) / Primary screening (TSA) / delta Tm (K)” value was -0.11 K.
For the compound `Cc1ccc(C)c(CSCc2nc3ccsc3c(=O)[nH]2)c1`, the “TSA(without NAD+) / Primary screening (TSA) / delta Tm (K)” value was -0.03 K.
The value for `COC(=O)c1cc2c(C)nn(-c3ccc(F)cc3)c2s1` was 0.16 K; that for `Cc1ccc(NC=C2C(=O)NC(=S)NC2=O)cc1` was -0.23 K.
The figure for `CC(=O)C(C)N` (stereo not shown) is -0.21 K; for `COc1ncnc2c1CN(C(C)C(=O)N1CCc3ccccc31)CC2` (stereo not shown) it is -0.03 K.
The value for `CCOc1nc2cc(C(=O)OCCC3CCCCN3C(=O)c3cccn3C)ccc2[nH]1` (stereo not shown) was -0.13 K; that for `COC(=O)c1sc2cccc(F)c2c1CNC(=O)Cn1cnnn1` was 0.15 K; that for `CC(Oc1ccc(C#N)cc1)C(=O)NC(C)c1ccc2ccccc2c1` (stereo not shown) was -0.07 K.
Regarding `COc1ccc(C(=O)C(C)OC(=O)c2c(C)noc2C)cc1` (stereo not shown), the “TSA(without NAD+) / Primary screening (TSA) / delta Tm (K)” value was -0.21 K.
The figure for `C=CCNC(=O)c1ccc(NC(=O)N2CCC(C(=O)Nc3ccccc3OC)CC2)cc1` is 0.06 K; for `Cc1ccc(/C=C/S(=O)(=O)NCC(=O)Nc2ccccc2Cc2ccccc2)cc1` it is -0.03 K.
The figure for `CC(C)Oc1ccc(S(=O)(=O)N2CCOCC2)cc1NC(=O)C1=COCCO1` is -0.12 K; for `NC(=O)c1ccccc1OCc1cccc(COc2ccccc2C(N)=O)c1` it is 0.02 K; for `CCOc1ccc(S(=O)(=O)N(CC(=O)NC23CC4CC(CC(C4)C2)C3)Cc2ccccc2)cc1` it is 0.05 K.
`COc1cc(C=C2C(=O)NC(=S)NC2=O)cc(Br)c1OC`: the “TSA(without NAD+) / Primary screening (TSA) / delta Tm (K)” value is reported as -0.08 K.
Take `CC(C)c1ccc2c(c1)CCCN2C(=O)CCn1cnc2ccccc2c1=O`: the “TSA(without NAD+) / Primary screening (TSA) / delta Tm (K)” value is -0.34 K.
Turning to `CCCCN(C(=O)c1cccc(S(=O)(=O)N(C)c2ccc(C)cc2)c1)c1c(N)n(CC(C)C)c(=O)[nH]c1=O`, the “TSA(without NAD+) / Primary screening (TSA) / delta Tm (K)” value was 0.09 K.
The figure for `CC1(c2cccc(N)c2)NC(=O)NC1=O` (stereo not shown) is -0.12 K; for `CCC(N)CC` it is -0.08 K; for `O=C(O)c1ccc2c(=O)n3c(nc2c1)/C(=C\c1cccc(O)c1)CC3` it is 0.12 K.
The value for `CCn1cc(CC(=O)N2CCC(CN3CCCC3)C2)c2ccccc21` (stereo not shown) was -0.32 K; that for `CCCNC(=O)CSc1nnc(-c2c[nH]c3ccccc23)n1Cc1ccco1` was 0.02 K.
`COc1ccc(N(C)S(=O)(=O)c2cccc(C(=O)Nc3ccc(Br)cc3F)c2)cc1`: the “TSA(without NAD+) / Primary screening (TSA) / delta Tm (K)” value stood at 0.07 K.
As to `CCCOc1ccc(C(=O)C2=C(O)C(=O)N(CCN3CCOCC3)C2c2ccc([N+](=O)[O-])cc2)cc1` (stereo not shown), the “TSA(without NAD+) / Primary screening (TSA) / delta Tm (K)” value is on record as -0.04 K.
The value for `O=[N+]([O-])c1ccc(CSc2nnc(-c3c[nH]c4ccccc34)n2-c2ccc(Cl)cc2)cc1` was 0.08 K; that for `O=C(CCCNC(=O)c1cccs1)NNC(=O)COc1ccccc1-c1ccccc1` was -0.03 K.
The figure for `O=C(NCc1cccnc1N1CCOCC1)C1=COCCO1` is -0.17 K; for `Cc1cccc(NC=C2C(=O)NC(=S)NC2=O)n1` it is -0.13 K; for `NC(=O)C1CCCN1C1CCN(c2ccnc3c(F)cccc23)CC1` (stereo not shown) it is 0.02 K.
The figure for `CC1Cc2ccccc2N1C(=O)c1ccc(Cl)nc1Cl` (stereo not shown) is -0.03 K; for `COC(=O)NC1(C(=O)Nc2cnc3ccccc3n2)CCCC1` it is -0.11 K; for `O=C(OCc1cc(Cl)ccn1)c1ccc2[nH]c(C(F)F)nc2c1` it is 0.06 K.
Consider `COc1ccccc1NC(=O)c1ccc(NC(=O)COC(=O)C23CC4CC(CC(C4)C2)C3)cc1`, for which the “TSA(without NAD+) / Primary screening (TSA) / delta Tm (K)” value came out at 0.42 K.
The figure for `CCOc1ccc(NC(=O)CN(C)C(=O)/C=C/c2ccc(S(=O)(=O)N3CCCCCC3)cc2)cc1OCC` is -0.03 K; for `COC(C)C(=O)O` (stereo not shown) it is -0.13 K; for `Oc1cccc2c1Cc1c-2nc2ccc(Cl)cc2c1-c1ccccc1Cl` it is 0.38 K.
The value for `Cc1ccc(C)c(N2C(=O)c3ccc(C(=O)Nc4ccc(Oc5ncccn5)cc4)cc3C2=O)c1` was -0.21 K; that for `CCCCn1c(N)c(N(CCOC)C(=O)c2cccc(S(=O)(=O)N(C)c3ccc(C)cc3)c2)c(=O)[nH]c1=O` was -0.17 K; that for `CN1C(=O)C(C(=O)c2cn(C)c3ccccc23)C(=O)N(C)C1=O` was -0.05 K.
The figure for `Cc1ccc(N(C)S(=O)(=O)c2cccc(C(=O)OCc3cc(=O)oc4cc(C)ccc34)c2)cc1` is -0.01 K; for `O=[N+]([O-])c1ccc(/C=C/Br)o1` it is 0.02 K.
For `Cc1c(-c2ccccc2)sc(NC(=O)C2=COCCO2)c1C(=O)N1CCOCC1`, the “TSA(without NAD+) / Primary screening (TSA) / delta Tm (K)” value is recorded as -0.23 K.
The value for `O=C(NCC(c1ccccc1)c1c[nH]c2ccccc12)C1=COCCO1` (stereo not shown) was -0.23 K.
The value for `NC(=O)c1ccc(Cl)c(NC(=O)c2nn(-c3ccccc3)c3c2CCC3)c1` was -0.21 K; that for `CCc1sc(C(=O)Nc2cc(C(N)=O)ccc2N2CCCC2)cc1C` was -0.03 K; that for `Cc1ccc(N(C)S(=O)(=O)c2cccc(C(=O)OC(C)C(N)=O)c2)cc1` (stereo not shown) was -0.12 K.
The value for `CN(c1ccccc1)S(=O)(=O)c1cccc(C(=O)Nc2ccccc2-c2nc3ccccc3[nH]2)c1` was 0.33 K; that for `O=C(Cn1cnc2ccccc2c1=O)Nc1ccc(N2CCN(Cc3ccccc3)CC2)cc1` was -0.02 K.
Regarding `CCCN(C(=O)CSc1nnc(NCc2ccco2)s1)C1=CCCCC1`, the “TSA(without NAD+) / Primary screening (TSA) / delta Tm (K)” value came to 0.12 K.
`COc1cccc(C2C(C(=O)c3ccco3)=C(O)C(=O)N2CCCN2CCOCC2)c1` (stereo not shown): the “TSA(without NAD+) / Primary screening (TSA) / delta Tm (K)” value was -0.23 K.
The figure for `c1ccc2c3c([nH]c2c1)C1(CCCCC1)NCC3` is -0.13 K; for `O=c1oc2cc(Cl)ccc2n1Cc1nc(-c2ccco2)no1` it is 0.06 K; for `c1ccc(-n2ncc3c(-n4ccnc4)ncnc32)cc1` it is -0.15 K.
The figure for `O=C(CN1CCN(c2ncnc3ccsc23)CC1)Nc1ccccc1Cl` is -0.34 K.
On to `OCC1(Nc2ncnc3ccsc23)CCC1`, for which the “TSA(without NAD+) / Primary screening (TSA) / delta Tm (K)” value was -0.22 K.
The value for `CCOC(=O)c1c(C2CC2)csc1NC(=O)COC(=O)C1CC(=O)N(c2ccccc2C(C)CC)C1` (stereo not shown) was -0.48 K; that for `Cc1cc2ncn(CC(NC(=O)C3CC3c3cccnc3)C3CC3)c2cc1C` (stereo not shown) was -0.13 K.
The value for `CCOc1cc(CN(C)C(C)C(=O)Nc2cc(C)no2)ccc1OC(F)F` (stereo not shown) was -0.03 K; that for `COc1cc(CN(C)C(=O)c2cccc(S(C)(=O)=O)c2)ccc1OCc1ccccc1` was 0.03 K; that for `Fc1cccc2[nH]c(CSc3nccn3Cc3ccccn3)nc12` was -0.12 K.
The value for `COc1cc(C(C)=O)ccc1COc1ccc(C(=O)OC(C)C(=O)NC23CC4CC(CC(C4)C2)C3)cc1OC` (stereo not shown) was 0.05 K; that for `CCC(N)COC` (stereo not shown) was -0.18 K; that for `CC(NCc1ccncc1)c1ccccc1` (stereo not shown) was 0.06 K.
`Cc1cc(C)nc(SCc2ccccc2C(=O)N2CCN(CC(=O)Nc3cccc(F)c3)CC2)n1`: the “TSA(without NAD+) / Primary screening (TSA) / delta Tm (K)” value is listed as -0.11 K.
The figure for `CC(=O)Nc1ccc(CC(=O)NCC(c2ccccc2)N(C)C)cc1` (stereo not shown) is -0.01 K; for `CC(=O)NC12CC3CC(C1)CC(C(=O)Oc1ccc(N(C)S(=O)(=O)c4cc(C)ccc4C)cc1)(C3)C2` it is -0.02 K; for `CC(=O)c1cccc(NC(=O)C(C)OC(=O)c2ccc(OCC(=O)N3C(C)CCCC3C)cc2)c1` (stereo not shown) it is 0.12 K.
The value for `CCCCC(=O)OCC(=O)NCCc1ccc(S(N)(=O)=O)cc1` was -0.07 K; that for `Cc1cc(C=C2C(=O)NC(=S)NC2=O)c(C)n1-c1cccc(F)c1` was -0.61 K.
The value for `COc1ccccc1CNC(=O)C(Sc1ccccc1)c1ccccc1` (stereo not shown) was -0.15 K; that for `NC(=O)C1CCN(c2nc(-c3cccnc3)nc3sc4c(c23)CCCC4)CC1` was 0.33 K; that for `COc1cccc(C=C2C(=O)NC(=S)NC2=O)c1` was 0.02 K.
Take `Cc1ccc(-c2csc3ncn(CC(=O)NC(=O)Nc4ccc5c(c4)OCCO5)c(=O)c23)s1`: the “TSA(without NAD+) / Primary screening (TSA) / delta Tm (K)” value was 0.26 K.
In the case of `CN(c1ccccc1)S(=O)(=O)c1cccc(C(=O)OCc2ccccc2C#N)c1`, the “TSA(without NAD+) / Primary screening (TSA) / delta Tm (K)” value is -0.08 K.
